Measured values reported in publication PMC12847786.
These are yes or no findings as the source states them, for the method shown. Binding seen in cells or lysates may run through a third protein. Binding calls can cover weak binding; strength is not graded here.

T1: Cellular communication network factor 1 (CCN1) (UniProt P18406)
T1 sequence: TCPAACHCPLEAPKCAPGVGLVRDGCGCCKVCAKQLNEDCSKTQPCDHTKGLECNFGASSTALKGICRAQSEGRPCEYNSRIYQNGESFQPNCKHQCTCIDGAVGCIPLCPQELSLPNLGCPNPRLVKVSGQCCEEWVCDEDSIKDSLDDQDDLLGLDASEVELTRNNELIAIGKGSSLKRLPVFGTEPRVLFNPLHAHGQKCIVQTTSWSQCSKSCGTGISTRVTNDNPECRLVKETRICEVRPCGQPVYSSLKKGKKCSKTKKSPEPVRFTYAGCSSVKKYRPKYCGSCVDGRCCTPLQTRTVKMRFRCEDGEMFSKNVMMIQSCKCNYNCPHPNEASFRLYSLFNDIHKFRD


Assays:
[1] = molecular target: T1, Cellular communication network factor 1 (CCN1); test: co-IP; BMDM lysate in IP lysis buffer, antibody or control IgG overnight at 4 °C, magnetic beads, three washes, Western blot; reciprocal Co-IP
[2] = molecular target: integrin αvβ5 (mouse (endogenous in BMDMs)); test: as above

Molecule	binding [1]	binding [2]
integrin αvβ5 (mouse (endogenous in BMDMs)) (complex)	binds	–
Cellular communication network factor 1 (CCN1) (protein, UniProt P18406 25-379) TCPAACHCPLEAPKCAPGVGLVRDGCGCCKVCAKQLNEDCSKTQPCDHTKGLECNFGASSTALKGICRAQSEGRPCEYNSRIYQNGESFQPNCKHQCTCIDGAVGCIPLCPQELSLPNLGCPNPRLVKVSGQCCEEWVCDEDSIKDSLDDQDDLLGLDASEVELTRNNELIAIGKGSSLKRLPVFGTEPRVLFNPLHAHGQKCIVQTTSWSQCSKSCGTGISTRVTNDNPECRLVKETRICEVRPCGQPVYSSLKKGKKCSKTKKSPEPVRFTYAGCSSVKKYRPKYCGSCVDGRCCTPLQTRTVKMRFRCEDGEMFSKNVMMIQSCKCNYNCPHPNEASFRLYSLFNDIHKFRD	–	binds
